Chains of the proteins cited; added tags and fusions are not shown.
UniProt P35177: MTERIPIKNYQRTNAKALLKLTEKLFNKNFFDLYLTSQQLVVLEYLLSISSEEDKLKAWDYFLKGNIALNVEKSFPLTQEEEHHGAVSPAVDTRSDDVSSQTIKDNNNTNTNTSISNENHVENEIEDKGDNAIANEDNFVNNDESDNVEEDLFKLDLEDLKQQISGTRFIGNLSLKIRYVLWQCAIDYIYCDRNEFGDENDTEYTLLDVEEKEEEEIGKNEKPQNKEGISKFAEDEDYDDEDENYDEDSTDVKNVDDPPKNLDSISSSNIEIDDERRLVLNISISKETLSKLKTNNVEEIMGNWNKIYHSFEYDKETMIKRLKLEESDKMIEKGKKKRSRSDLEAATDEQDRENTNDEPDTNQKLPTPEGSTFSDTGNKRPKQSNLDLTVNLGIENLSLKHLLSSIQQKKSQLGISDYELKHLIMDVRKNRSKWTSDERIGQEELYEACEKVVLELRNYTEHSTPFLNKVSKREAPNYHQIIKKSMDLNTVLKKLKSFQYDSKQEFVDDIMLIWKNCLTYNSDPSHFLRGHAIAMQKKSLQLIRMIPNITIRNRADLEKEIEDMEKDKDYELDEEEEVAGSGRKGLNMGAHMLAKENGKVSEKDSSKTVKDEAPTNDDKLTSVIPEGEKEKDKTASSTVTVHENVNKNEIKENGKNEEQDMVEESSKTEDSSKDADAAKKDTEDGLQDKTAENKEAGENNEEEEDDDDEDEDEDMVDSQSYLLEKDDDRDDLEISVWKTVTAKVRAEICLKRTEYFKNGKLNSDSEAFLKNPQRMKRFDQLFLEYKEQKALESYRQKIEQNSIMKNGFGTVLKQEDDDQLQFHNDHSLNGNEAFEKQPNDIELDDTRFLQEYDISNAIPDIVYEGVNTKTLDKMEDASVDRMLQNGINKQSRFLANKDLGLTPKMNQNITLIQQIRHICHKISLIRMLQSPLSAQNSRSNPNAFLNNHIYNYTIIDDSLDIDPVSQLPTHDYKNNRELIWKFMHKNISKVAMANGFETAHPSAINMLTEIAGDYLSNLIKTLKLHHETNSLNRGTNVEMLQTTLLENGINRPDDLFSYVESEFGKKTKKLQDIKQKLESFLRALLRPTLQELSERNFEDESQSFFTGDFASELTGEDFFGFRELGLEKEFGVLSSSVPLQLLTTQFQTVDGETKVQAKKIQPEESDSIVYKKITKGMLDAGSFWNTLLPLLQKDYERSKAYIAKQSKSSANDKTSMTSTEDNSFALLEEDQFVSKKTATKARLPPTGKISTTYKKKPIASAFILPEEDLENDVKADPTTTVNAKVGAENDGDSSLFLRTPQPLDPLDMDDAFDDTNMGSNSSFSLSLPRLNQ

According to article PMC11294583:

B1: Cti6 (protein, UniProt Q08923 1-506)
chain: MESTAIVPKGPVVGSEDMEKAEVIASGSTDIISTTSTATTTAAIGSVQEESVKQEDVPMEGGEGEVEEEEGETRCICGELDTPDDSGFFIQCEQCSSWQHGYCVSITQDNAPDKYWCEQCRPELHQLFTTDTGEARSIYKPVQEKRRQSRRKARSAAASKSHAANEAEKSPRNTSNTDDNVDDIGDEEDEVEDEASAVALAKDGNTRSSRRRRRNSMDDASTDQYSLDPGDSDKKLLDRKRATFMAREEKQYQRMLEKALKESRRTSHQEDPESYENDADIYQGDTDNHNGTTRLQTDVMLTEGKPDSVTNDDMKESLRPSKEQSMEKTNDVEKEASQEKESSTGSAQDTEKTDEPILPLTSISSSEDDSRKASSRGSKRVSKPARKGNRTRRSNTSSDTNQNRRSADIGTDKPVKPRLPPQRTSLNEMRRRVSAILEFISRTQWELSEDQSDREEFVRFVENQHFVEKVDTIYNGYNESLSMMDDLTRELLLWEKKYSNNTNAIQ
B2: Spt6 (protein, UniProt P23615 1-1451)
chain: MEETGDSKLVPRDEEEIVNDNDETKAPSEEEEGEDVFDSSEEDEDIDEDEDEARKVQEGFIVNDDDENEDPGTSISKKRRKHKRREREEDDRLSEDDLDLLMENAGVERTKASSSSGKFKRLKRVGDEGNAAESESDNVAASRQDSTSKLEDFFSEDEEEEESGLRNGRNNEYGRDEEDHENRNRTADKGGILDELDDFIEDDEFSDEDDETRQRRIQEKKLLREQSIKQPTQITGLSSDKIDEMYDIFGDGHDYDWALEIENEELENGNDNNEAEEEEIDEETGAIKSTKKKISLQDIYDLEDLKKNLMTEGDMKIRKTDIPERYQELRAGITDYGNMSSEDQELERNWIAEKISVDKNFDANYDLTEFKEAIGNAIKFITKENLEVPFIYAYRRNYISSREKDGFLLTEDDLWDIVSLDIEFHSLVNKKDYVQRFYAELHIDDPIVTEYFKNQNTASIAELNSLQDIYDYLEFKYANEINEMFINHTGKTGKKHLKNSSYEKFKASPLYQAVSDIGISAEDVGENISSQHQIHPPVDHPSSKPVEVIESILNANSGDLQVFTSNTKLAIDTVQKYYSLELSKNTKIREKVRSDFSKYYLADVVLTAKGKKEIQKGSLYEDIKYAINRTPMHFRRDPDVFLKMVEAESLNLLSVKLHMSSQAQYIEHLFQIALETTNTSDIAIEWNNFRKLAFNQAMDKIFQDISQEVKDNLTKNCQKLVAKTVRHKFMTKLDQAPFIPNVRDPKIPKILSLTCGQGRFGADAIIAVYVNRKGDFIRDYKIVDNPFDKTNPEKFEDTLDNIIQSCQPNAIGINGPNPKTQKFYKRLQEVLHKKQIVDSRGHTIPIIYVEDEVAIRYQNSERAAQEFPNKPPLVKYCIALARYMHSPLLEYANLTSEEVRSLSIHPHQNLLSSEQLSWALETAFVDIVNLVSVEVNKATDNNYYASALKYISGFGKRKAIDFLQSLQRLNEPLLARQQLITHNILHKTIFMNSAGFLYISWNEKRQKYEDLEHDQLDSTRIHPEDYHLATKVAADALEYDPDTIAEKEEQGTMSEFIELLREDPDRRAKLESLNLESYAEELEKNTGLRKLNNLNTIVLELLDGFEELRNDFHPLQGDEIFQSLTGESEKTFFKGSIIPVRVERFWHNDIICTTNSEVECVVNAQRHAGAQLRRPANEIYEIGKTYPAKVIYIDYANITAEVSLLDHDVKQQYVPISYSKDPSIWDLKQELEDAEEERKLMMAEARAKRTHRVINHPYYFPFNGRQAEDYLRSKERGEFVIRQSSRGDDHLVITWKLDKDLFQHIDIQELEKENPLALGKVLIVDNQKYNDLDQIIVEYLQNKVRLLNEMTSSEKFKSGTKKDVVKFIEDYSRVNPNKSVYYFSLNHDNPGWFYLMFKINANSKLYTWNVKLTNTGYFLVNYNYPSVIQLCNGFKTLLKSNSSKNRMNNYR
B3: Ada1 (protein, UniProt Q12060 1-488)
chain: MSAIQSPAPKPLQPTYPAASPASTNAYMKPGLIGSPAVSNHTEPNNGNNETAEPQGPNQRIDLGAMIEELTSLLGKESWTKYAQIISLFILGKLSRKELSNELELVFSPSAASLEKSNTNHHHSLVRLHNQLLLGIFANSLRENPLGRNGNESSWGFGNGSNNPNNKLKRINKHNSQIEVYKKIVMSLPLNDRNRLKMITKEAGKRGFIFCSVFQARLNNIPKIPIVTNPESLKRVKSNNLKTPLEWSQDIMNGFNVPLASESHSLPDTDSFYLRMVGIAREHGLVGTVDARCVELISLALDQYLKNIIEFTIDTVRYRRKKYSDYYDLNESGLYKSVSEMAADKRDAKIKQLDDDKNEDECADEAKSINNGNNSSKDDIGDISMSSITKAGEAVNEELHENRTISLTNEDIYDSLSIFPNLVEPSGSYYALTNLGLVNDDELVDMKSNIDDLPDFLNEKPTFTPLDERNVGTRHELNWLIKGILTED
B4: Tod6 (protein, UniProt P34219 1-525)
chain: MTLPKLSSVSVSSGHVSANSHGFSILSKHPHPNNLVHSHSLSHTNAKSHLPISSTSTKENSTNKEEAESLKKNNPSSWDPSDDIKLRHLKEIKNLGWKEIAHHFPNRTPNACQFRWRRLKSGNLKSNKTAVIDINKLFGVYATGDATPSAGTPSAEEAVKEEAVEDEDITAGSSAIEDSPPDFKPLVKPKYMDRKLITQRSTSTFSDHEPQHTKPRKLFVKPRSFSHSITTNTPNVKTAQQTNLSLYNTTSAKTNKAVNSNDYENIGLVPKIIIRSRRNSFIPSTQIPHSTTKTRKNSHSVISSRRSSFNMMHSRRSSFNSHAPTEPISRRASLVVSPYMSPRRLSTSQSVHYHPQHQYYLNPIASPNCKTDHANDKITHTRTFLDMQKFANKHPWSREDDEVLLNNTKDKQNHLSPLEISIVLPNNRSELEIQQRMDYLKRKGRVSGFHTNEGCKDEEEEDDIDPLHKENGINTPSQQSQNYGMLEAKHDNPKSSELSSMTSANDIRNEQDELPGINSIFKNIF
B5: Rxt2 (protein, UniProt P38255 1-430)
chain: MTIRSSMKNNAELESKSVLANESNIISTFTRRIIKEKSGNYQVLKRSLDGKLIYPEATGISSNRGNKLLQRSEVVTRRDLNNSKPMIEQTVFYNGSEHRLLQTNIVTDSRRKRIKFTPDINVEPVLVGDENDIDGSEKEDENITDEYYGEEDDDDLSKLVNVKEILTPILSLGDIINHKTISRTFSSPILKNLALQIILMIEKEQMSVVRYSQFLEVFLGDHPEPIYESNLNLPSYNHNLTLPEDRGASDEDDINNKNNINEVNSNSLSTEAGHINNGMEEFGEEDPFFALPRLEQSNALLSLLPSSSGSASISTLTAAEQQQLNEEIESARQLSQIALQRNKEFIRNLQKIRKSVIKANRIRGRILNWSREYLGISDDDITIPVALRVVKRGLISATTNKTTNFEEEIENTMEDGVVDDNEPDEEANRA
B6: Dep1 (protein, UniProt P31385 1-405)
chain: MSQQTPQESEQTTAKEQDLDQESVLSNIDFNTDLNHNLNLSEYCISSDAGTEKMDSDEEKSLANLPELKYAPKLSSLVKQETLTESLKRPHEDEKEAIDEAKKMKVPGENEDESKEEEKSQELEEAIDSKEKSTDARDEQGDEGDNEEENNEEDNENENEHTAPPALVMPSPIEMEEQRMTALKEITDIEYKFAQLRQKLYDNQLVRLQTELQMCLEGSHPELQVYYSKIAAIRDYKLHRAYQRQKYELSCINTETIATRTFIHQDFHKKVTDLRARLLNRTTQTWYDINKERRDMDIVIPDVNYHVPIKLDNKTLSCITGYASAAQLCYPGEPVAEDLACESIEYRYRANPVDKLEVIVDRMRLNNEISDLEGLRKYFHSFPGAPELNPLRDSEINDDFHQWAQ
B7: Stb3 (protein, UniProt Q12427 1-513)
chain: MSENQKEVSPPQAISVKSEASSSIFSKPISTSSPAGLAAAQRVTPGKLSTLLLEMGPLAIRHITQTLCLDIPCFKDLSSSKQRRLIMSAMESGDKEKSVVFEKIGWGQWSAKRVDPANFDKELEATNFANAKVKDLISQESQRRKSNNSNSNSGGKVEMPMKVEHNITNIDGATTPPTAVASTTIPVNIKRSKSPLAAANVVYIDENALASEDEDEEFDEDDHHLHYQNKSRNSSNNFGKSSNGDPYSFGRRRSQVVFADSTPENIEHEIIAQKIRPLLRNRRRSSIKPHTPFISKLNTHQDSSYLSPNTTSTTTPSNNNSNSNQAKIDLEKLTATSEPTSRRASRLSVSKESSIRSTLFPNKNYLIVTTNPNSKATSVSTSPKLEEQMNVSSNPIVLSDKEKHRVASQHLNGESSPQLVPHSHHQPHSDTDEEDWESIGAASLRNNSLAPNIDSVASSTNGVVSPKPTNPSFTNSQNGDIEPPLQHDQQKHEQQPRNGEDNSAAFLLMSLKS
B8: Tea1, Ty1 enhancer activator I (protein, UniProt P47988 1-759)
chain: MTAPLWPNKNEKNHTVKRALSTDMTSNILSSTNASSNEENSRSSSAANVRSGTGANTLTNGGSTRKRLACTNCRNRRKKCDLGFPCGNCSRLELVCNVNDEDLRKKRYTNKYVKSLESHIAQLETNLKNLVQKIYPDDEQILNRMMVGDVLSALPDSSQVSINYTDQTPSLPIPATRGTFIIENDKVSQPLSSFNQQTEPSTLNSGIFNTQKQNFEESLDDQLLLRRSLTPQGEKKKKPLVKGSLYPEGPVSYKRKHPVKSDSLLPVSSLTAATDPSTFSDGITAGNSVLVNGELKKRISDLKTTVIVRGLNDDNPNSINNDPRILKSLSNFYKWLYPGYFIFVHRESFLYGFFNHSKNNYEDSSYCSVELIYAMCAVGSRLTPDLQEYSEVYYQRSKKTLLQLVFDEQSTARITTVQALFCLAFYELGKGNNQLGWYFSGLAIRVGYDMGFQLDPKVWYVDDNNLQLTQSELEIRSRIYWGCYIADHFICLMLGRTSTLSVSNSTMPESDELPEVNGTEEFRFIGRHVLQISLPLKNLIILSRLVQIFTSKIFIESEDIARKLKYLNTFNSQVYNWRQSLPEFLQWSKTLIENDDVSTDPTISYFWYCYYIVRLTFNKPFIEDSQESETVVIEIIDDLKTLLDNFGKKFGNYTKGNLYQLYSCLLAINCLKKLKEIRSSEQDSWNAQLDFFNHIFYTQLYPAYDLPKKLQEDTELETEQENQMLNQVGNINYTHDFSLSHEIDDLIRELFGVGTPQKL

What follows are molecules tested against T1, Ume6 tagged at the carboxy-terminus with TurboID (TurboID-3xMyc) (Saccharomyces cerevisiae) (UniProt P39001) (assay: proximity labelling; Ume6 with C-terminal TurboID-3xMyc in living diploid SK1 cells with 50 μM biotin; rich medium (YPD, exponential) or 4 h in SPO; WT, ime1Δ and rim11Δ cells; denatured extracts, streptavidin M280 beads, on-bead trypsin digestion, label-free LC-MS/MS; enrichment against an untagged control).
T1 sequence: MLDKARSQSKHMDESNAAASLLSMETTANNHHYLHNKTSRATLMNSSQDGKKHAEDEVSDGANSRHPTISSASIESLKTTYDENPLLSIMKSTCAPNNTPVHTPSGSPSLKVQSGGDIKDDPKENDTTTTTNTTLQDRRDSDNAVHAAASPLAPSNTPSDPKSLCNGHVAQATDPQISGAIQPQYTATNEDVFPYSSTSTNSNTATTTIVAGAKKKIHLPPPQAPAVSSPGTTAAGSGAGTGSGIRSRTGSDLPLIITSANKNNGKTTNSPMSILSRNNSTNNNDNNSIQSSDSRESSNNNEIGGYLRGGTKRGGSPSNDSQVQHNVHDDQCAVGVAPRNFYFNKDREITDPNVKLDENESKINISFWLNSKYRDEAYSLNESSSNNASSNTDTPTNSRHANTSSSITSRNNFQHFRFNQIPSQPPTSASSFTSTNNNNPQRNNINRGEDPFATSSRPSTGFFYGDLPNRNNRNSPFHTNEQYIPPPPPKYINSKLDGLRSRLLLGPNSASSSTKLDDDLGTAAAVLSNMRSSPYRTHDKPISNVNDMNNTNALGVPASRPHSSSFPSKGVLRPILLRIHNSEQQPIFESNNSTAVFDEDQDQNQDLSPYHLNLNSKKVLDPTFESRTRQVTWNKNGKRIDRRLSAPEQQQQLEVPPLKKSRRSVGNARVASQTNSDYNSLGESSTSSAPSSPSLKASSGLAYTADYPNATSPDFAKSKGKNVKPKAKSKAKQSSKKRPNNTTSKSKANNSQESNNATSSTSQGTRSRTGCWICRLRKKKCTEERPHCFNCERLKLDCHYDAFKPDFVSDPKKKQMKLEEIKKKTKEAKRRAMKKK

binding, binds:
Spt7 (from UniProt P35177 1-1332)
B1
B2
B3
B4
B5
B6
B7
B8

Results are given in words; binding and its absence hold for the method and conditions named. In cells and extracts the contact can be indirect. These calls come from enrichment with a bait or labelling near it, and not all partners need be listed. Sequences can lack the tags named with a protein.
